Source: paper PMC3650004
No constants are given. Whether binding was seen depends on the method and setting. Binding seen in cells or lysates may run through a third protein. Some entries that bind do so weakly or less than the wild type.

Sequences of proteins named here, by UniProt entry; tags and fusion partners are left off.
UniProt Q14191: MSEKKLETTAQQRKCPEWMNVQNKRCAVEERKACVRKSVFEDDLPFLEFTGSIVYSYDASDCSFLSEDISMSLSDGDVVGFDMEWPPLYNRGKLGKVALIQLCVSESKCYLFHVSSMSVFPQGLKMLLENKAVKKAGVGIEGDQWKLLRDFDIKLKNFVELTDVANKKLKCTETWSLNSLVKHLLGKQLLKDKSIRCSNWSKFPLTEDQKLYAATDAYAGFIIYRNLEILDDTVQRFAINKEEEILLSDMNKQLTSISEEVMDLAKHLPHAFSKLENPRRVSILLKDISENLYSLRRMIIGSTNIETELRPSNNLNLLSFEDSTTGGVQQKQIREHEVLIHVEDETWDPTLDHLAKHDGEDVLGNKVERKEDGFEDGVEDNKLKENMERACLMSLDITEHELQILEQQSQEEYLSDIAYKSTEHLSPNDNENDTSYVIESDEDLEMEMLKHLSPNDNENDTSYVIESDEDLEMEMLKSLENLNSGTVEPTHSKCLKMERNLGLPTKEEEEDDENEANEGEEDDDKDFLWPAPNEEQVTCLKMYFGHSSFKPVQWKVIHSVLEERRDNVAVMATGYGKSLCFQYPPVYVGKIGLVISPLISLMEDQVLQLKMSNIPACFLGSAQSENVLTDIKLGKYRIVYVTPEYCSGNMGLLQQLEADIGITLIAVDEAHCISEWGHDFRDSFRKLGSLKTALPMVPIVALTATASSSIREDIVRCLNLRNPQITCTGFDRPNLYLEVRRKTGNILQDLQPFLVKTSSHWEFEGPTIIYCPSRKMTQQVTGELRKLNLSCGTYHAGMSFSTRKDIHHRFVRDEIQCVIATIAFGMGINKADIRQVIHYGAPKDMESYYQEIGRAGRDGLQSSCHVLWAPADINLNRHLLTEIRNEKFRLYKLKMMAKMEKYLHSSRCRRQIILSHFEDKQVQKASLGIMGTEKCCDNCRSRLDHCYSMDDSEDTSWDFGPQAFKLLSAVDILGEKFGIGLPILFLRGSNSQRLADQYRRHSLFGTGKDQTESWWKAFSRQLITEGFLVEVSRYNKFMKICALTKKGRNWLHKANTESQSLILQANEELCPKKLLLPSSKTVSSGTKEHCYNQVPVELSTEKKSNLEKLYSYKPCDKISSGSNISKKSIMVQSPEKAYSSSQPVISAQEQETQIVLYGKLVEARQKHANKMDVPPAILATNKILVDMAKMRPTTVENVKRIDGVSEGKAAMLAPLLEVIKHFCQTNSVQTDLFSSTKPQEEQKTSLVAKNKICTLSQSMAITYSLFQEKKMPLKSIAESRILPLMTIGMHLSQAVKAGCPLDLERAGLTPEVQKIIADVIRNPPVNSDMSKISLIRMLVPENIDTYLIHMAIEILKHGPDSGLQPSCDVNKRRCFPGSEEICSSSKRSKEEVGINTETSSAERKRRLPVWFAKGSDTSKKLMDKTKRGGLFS
UniProt Q9Y5B9: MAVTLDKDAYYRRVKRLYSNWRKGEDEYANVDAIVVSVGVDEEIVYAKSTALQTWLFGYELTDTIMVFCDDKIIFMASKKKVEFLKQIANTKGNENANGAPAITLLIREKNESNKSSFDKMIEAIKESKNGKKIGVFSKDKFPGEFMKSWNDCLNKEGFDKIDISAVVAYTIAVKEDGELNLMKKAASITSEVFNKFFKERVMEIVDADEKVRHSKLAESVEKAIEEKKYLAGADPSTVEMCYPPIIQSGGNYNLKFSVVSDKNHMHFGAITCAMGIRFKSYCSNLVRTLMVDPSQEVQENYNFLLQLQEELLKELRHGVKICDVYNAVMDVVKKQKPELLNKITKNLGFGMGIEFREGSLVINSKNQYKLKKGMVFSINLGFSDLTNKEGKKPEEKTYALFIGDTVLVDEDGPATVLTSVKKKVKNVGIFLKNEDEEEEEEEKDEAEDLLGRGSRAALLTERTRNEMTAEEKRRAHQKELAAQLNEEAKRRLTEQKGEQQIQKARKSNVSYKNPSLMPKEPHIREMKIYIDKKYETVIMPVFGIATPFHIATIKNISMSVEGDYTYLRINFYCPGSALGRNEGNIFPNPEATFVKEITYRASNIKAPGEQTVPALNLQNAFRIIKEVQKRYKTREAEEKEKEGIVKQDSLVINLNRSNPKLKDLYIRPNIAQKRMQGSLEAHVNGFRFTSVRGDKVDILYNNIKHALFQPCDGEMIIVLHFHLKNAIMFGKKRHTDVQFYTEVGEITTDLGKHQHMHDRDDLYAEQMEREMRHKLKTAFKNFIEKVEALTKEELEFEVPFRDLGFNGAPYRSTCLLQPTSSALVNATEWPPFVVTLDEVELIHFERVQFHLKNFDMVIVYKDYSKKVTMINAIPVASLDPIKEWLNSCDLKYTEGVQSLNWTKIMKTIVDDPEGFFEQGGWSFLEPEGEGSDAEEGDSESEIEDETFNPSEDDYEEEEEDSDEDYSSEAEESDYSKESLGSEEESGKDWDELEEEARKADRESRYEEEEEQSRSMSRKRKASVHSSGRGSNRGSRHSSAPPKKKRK

How the values were obtained:
[1] = biological target: WRN helicase (endogenous) (human (endogenous in HeLa and HEK293T)) (UniProt Q14191); assay: co-IP; WRN antibody immunoprecipitates from HeLa nuclear extracts, immunoblot
[2] = biological target: T1, SMARCAL1 (endogenous) (human (endogenous in HeLa)) (UniProt Q9NZC9); assay: co-IP; SMARCAL1-909 antibody immunoprecipitates from HeLa nuclear extracts, immunoblot; cells mock treated or 2 mM HU for 16 h
T1 sequence: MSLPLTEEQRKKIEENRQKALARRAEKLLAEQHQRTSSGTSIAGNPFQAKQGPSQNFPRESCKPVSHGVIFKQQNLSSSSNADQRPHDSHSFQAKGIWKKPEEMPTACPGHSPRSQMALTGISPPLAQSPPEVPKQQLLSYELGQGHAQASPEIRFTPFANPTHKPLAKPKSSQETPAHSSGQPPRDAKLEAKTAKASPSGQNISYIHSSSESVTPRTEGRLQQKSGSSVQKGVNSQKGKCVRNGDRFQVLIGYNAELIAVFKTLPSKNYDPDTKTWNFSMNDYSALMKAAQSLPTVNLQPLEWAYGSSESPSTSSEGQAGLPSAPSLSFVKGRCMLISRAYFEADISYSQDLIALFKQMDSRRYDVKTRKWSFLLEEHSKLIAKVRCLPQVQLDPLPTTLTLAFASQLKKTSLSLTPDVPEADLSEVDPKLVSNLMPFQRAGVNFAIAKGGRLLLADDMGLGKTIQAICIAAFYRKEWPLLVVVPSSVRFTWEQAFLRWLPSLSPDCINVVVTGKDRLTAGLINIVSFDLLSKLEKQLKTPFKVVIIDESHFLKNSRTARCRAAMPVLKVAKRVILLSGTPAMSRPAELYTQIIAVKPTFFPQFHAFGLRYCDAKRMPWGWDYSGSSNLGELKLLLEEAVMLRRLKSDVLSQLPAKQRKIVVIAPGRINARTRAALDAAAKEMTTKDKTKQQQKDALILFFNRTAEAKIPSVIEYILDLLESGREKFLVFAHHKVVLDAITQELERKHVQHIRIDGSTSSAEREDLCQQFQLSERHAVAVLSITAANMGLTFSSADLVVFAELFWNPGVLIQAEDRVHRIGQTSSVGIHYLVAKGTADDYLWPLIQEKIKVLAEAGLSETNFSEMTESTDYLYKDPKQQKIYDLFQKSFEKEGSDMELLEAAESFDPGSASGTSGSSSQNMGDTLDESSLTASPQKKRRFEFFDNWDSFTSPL

binding [1]	binding [2]	Substance
binds	–	DNA-PKcs (endogenous) (from UniProt P78527 1-4128)
–	binds	SPT16 (endogenous) (from UniProt Q9Y5B9 1-1047)
